{"source": "PubChem BioAssay AID1259308 (NCATS, 2017)", "aim": "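Candidate targets for better recombinant protein yield in mammalian cells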 (primary screen)", "cells": "human HEK293 embryonic kidney cells stably expressing firefly luciferase (HEK-CMV-Luc2-Hygro)", "reagents": "single siRNA against human genes, 0.8 pmol siRNA per well", "time to read-out": "72 h", "read-out": "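Luciferase light (ONE-Glo) measured on one replicate plate set and viability (CellTiter-Glo) on the other, scaled to a negative control siRNA, with robust z-scores and luciferase per cell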", "direction": "total luciferase, z-score and total luciferase, % of control: higher = more reporter protein produced", "rule for the call": "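Active when the median/MAD z-score for overall luciferase is greater than 3; a gene was taken forward for validation with new siRNAs if at least two of its three siRNAs passed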", "calls": "active = raised luciferase; inactive = no rise", "note": "The deposit covers about 59,000 reagents; below is a random part of them. Of all reagents, about 1,510 (2.6%) were called active. 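Calls use total luciferase alone and ignore viability, so some active siRNAs may act by altering cell number.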 Reagents against one gene are numbered here. Further read-outs or replicates are left out here."}
{"target":"TAF11L2 (GeneID 391742)","reagent":1,"total luciferase, z-score":-0.0216,"total luciferase, % of control":81.5,"outcome":"inactive"}
{"target":"TAF11L2 (GeneID 391742)","reagent":2,"total luciferase, z-score":0.957,"total luciferase, % of control":101,"outcome":"inactive"}
{"target":"TAF11L2 (GeneID 391742)","reagent":3,"total luciferase, z-score":1.45,"total luciferase, % of control":111,"outcome":"inactive"}
{"target":"OR52N1 (GeneID 79473)","reagent":1,"total luciferase, z-score":-2.3,"total luciferase, % of control":36.1,"outcome":"inactive"}
{"target":"OR52N1 (GeneID 79473)","reagent":2,"total luciferase, z-score":0.975,"total luciferase, % of control":101,"outcome":"inactive"}
{"target":"OR52N1 (GeneID 79473)","reagent":3,"total luciferase, z-score":-0.405,"total luciferase, % of control":73.8,"outcome":"inactive"}
{"target":"PTCHD4 (GeneID 442213)","reagent":1,"total luciferase, z-score":0.0551,"total luciferase, % of control":83,"outcome":"inactive"}
{"target":"PTCHD4 (GeneID 442213)","reagent":2,"total luciferase, z-score":0.0688,"total luciferase, % of control":83.3,"outcome":"inactive"}
{"target":"PTCHD4 (GeneID 442213)","reagent":3,"total luciferase, z-score":-0.461,"total luciferase, % of control":72.7,"outcome":"inactive"}
{"target":"CAPN12 (GeneID 147968)","reagent":1,"total luciferase, z-score":-1.35,"total luciferase, % of control":55.1,"outcome":"inactive"}
{"target":"CAPN12 (GeneID 147968)","reagent":2,"total luciferase, z-score":0.855,"total luciferase, % of control":98.9,"outcome":"inactive"}
{"target":"CAPN12 (GeneID 147968)","reagent":3,"total luciferase, z-score":0.233,"total luciferase, % of control":86.5,"outcome":"inactive"}
{"target":"ZFP69B (GeneID 65243)","reagent":1,"total luciferase, z-score":0.675,"total luciferase, % of control":95.3,"outcome":"inactive"}
{"target":"ZFP69B (GeneID 65243)","reagent":2,"total luciferase, z-score":-0.554,"total luciferase, % of control":70.9,"outcome":"inactive"}
{"target":"ZFP69B (GeneID 65243)","reagent":3,"total luciferase, z-score":0.644,"total luciferase, % of control":94.7,"outcome":"inactive"}
{"target":"HSDL1 (GeneID 83693)","reagent":1,"total luciferase, z-score":-0.878,"total luciferase, % of control":64.4,"outcome":"inactive"}
{"target":"HSDL1 (GeneID 83693)","reagent":2,"total luciferase, z-score":1.69,"total luciferase, % of control":116,"outcome":"inactive"}
{"target":"HSDL1 (GeneID 83693)","reagent":3,"total luciferase, z-score":1.53,"total luciferase, % of control":112,"outcome":"inactive"}
{"target":"PTOV1 (GeneID 53635)","reagent":1,"total luciferase, z-score":0.802,"total luciferase, % of control":97.8,"outcome":"inactive"}
{"target":"PTOV1 (GeneID 53635)","reagent":2,"total luciferase, z-score":0.0903,"total luciferase, % of control":83.7,"outcome":"inactive"}
{"target":"PTOV1 (GeneID 53635)","reagent":3,"total luciferase, z-score":0.744,"total luciferase, % of control":96.7,"outcome":"inactive"}
{"target":"RGS13 (GeneID 6003)","reagent":1,"total luciferase, z-score":-0.598,"total luciferase, % of control":70,"outcome":"inactive"}
{"target":"RGS13 (GeneID 6003)","reagent":2,"total luciferase, z-score":-0.0786,"total luciferase, % of control":80.3,"outcome":"inactive"}
{"target":"RGS13 (GeneID 6003)","reagent":3,"total luciferase, z-score":-0.837,"total luciferase, % of control":65.2,"outcome":"inactive"}
{"target":"SLC9D1 (GeneID 55002)","reagent":1,"total luciferase, z-score":0.624,"total luciferase, % of control":94.3,"outcome":"inactive"}
{"target":"SLC9D1 (GeneID 55002)","reagent":2,"total luciferase, z-score":0.0236,"total luciferase, % of control":82.4,"outcome":"inactive"}
{"target":"SLC9D1 (GeneID 55002)","reagent":3,"total luciferase, z-score":-0.354,"total luciferase, % of control":74.9,"outcome":"inactive"}
{"target":"WTIP (GeneID 126374)","reagent":1,"total luciferase, z-score":0.297,"total luciferase, % of control":87.8,"outcome":"inactive"}
{"target":"WTIP (GeneID 126374)","reagent":2,"total luciferase, z-score":1.07,"total luciferase, % of control":103,"outcome":"inactive"}
{"target":"WTIP (GeneID 126374)","reagent":3,"total luciferase, z-score":2.22,"total luciferase, % of control":126,"outcome":"inactive"}
{"target":"SMUG1 (GeneID 23583)","reagent":1,"total luciferase, z-score":0.459,"total luciferase, % of control":91,"outcome":"inactive"}
{"target":"SMUG1 (GeneID 23583)","reagent":2,"total luciferase, z-score":-0.724,"total luciferase, % of control":67.5,"outcome":"inactive"}
{"target":"SMUG1 (GeneID 23583)","reagent":3,"total luciferase, z-score":0.827,"total luciferase, % of control":98.3,"outcome":"inactive"}

An excerpt from above, showing only “total luciferase, z-score”.
OR52N1 (GeneID 79473) #2: 0.975
OR52N1 (GeneID 79473) #3: -0.405
PTCHD4 (GeneID 442213) #1: 0.0551
PTCHD4 (GeneID 442213) #2: 0.0688
PTCHD4 (GeneID 442213) #3: -0.461
